Experiment [1] concerns the target T1, ETO2 (endogenous) (mouse (endogenous in MEL)) (UniProt O54972).
T1 sequence: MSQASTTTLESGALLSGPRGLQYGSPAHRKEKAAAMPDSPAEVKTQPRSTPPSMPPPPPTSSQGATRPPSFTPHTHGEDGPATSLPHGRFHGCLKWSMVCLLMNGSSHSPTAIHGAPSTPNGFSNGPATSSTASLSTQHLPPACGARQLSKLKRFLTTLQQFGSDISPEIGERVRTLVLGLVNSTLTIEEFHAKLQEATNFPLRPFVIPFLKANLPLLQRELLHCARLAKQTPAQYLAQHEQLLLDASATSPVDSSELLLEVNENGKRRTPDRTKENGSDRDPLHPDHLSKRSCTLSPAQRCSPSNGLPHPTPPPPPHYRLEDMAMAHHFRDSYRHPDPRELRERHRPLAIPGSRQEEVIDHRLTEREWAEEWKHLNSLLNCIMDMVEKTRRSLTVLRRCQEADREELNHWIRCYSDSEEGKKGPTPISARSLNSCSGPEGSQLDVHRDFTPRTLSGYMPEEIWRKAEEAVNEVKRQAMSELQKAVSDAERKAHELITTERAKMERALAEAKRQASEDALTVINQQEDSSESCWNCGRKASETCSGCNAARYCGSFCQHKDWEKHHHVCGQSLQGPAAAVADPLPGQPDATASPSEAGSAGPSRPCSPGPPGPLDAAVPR
Kind of experiment: co-IP; endogenous ETO2 antibody, 0.5 mg MEL nuclear extract at 100 mM KCl, benzonase, overnight at 4 °C, protein A or G Sepharose, western blot; species-matched IgG control. (In western blotting, separated proteins are transferred to a membrane and probed.)

Amino acid sequences for entries named in this document (tags omitted).
UniProt O70237: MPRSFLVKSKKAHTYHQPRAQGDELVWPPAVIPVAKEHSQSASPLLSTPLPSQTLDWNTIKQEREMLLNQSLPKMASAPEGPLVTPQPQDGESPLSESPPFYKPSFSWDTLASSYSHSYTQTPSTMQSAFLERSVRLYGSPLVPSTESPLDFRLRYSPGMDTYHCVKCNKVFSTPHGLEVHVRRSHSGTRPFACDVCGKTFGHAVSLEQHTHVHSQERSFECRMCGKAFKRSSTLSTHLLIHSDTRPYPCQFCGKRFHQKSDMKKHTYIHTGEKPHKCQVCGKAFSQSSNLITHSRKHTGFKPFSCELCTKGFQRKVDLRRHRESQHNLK

The target in another experiment is T2, ETO2-V5-Bio (UniProt O54972).
T2 sequence (chain, Bio peptide of the tag biotinylated by the bacterial BirA enzyme): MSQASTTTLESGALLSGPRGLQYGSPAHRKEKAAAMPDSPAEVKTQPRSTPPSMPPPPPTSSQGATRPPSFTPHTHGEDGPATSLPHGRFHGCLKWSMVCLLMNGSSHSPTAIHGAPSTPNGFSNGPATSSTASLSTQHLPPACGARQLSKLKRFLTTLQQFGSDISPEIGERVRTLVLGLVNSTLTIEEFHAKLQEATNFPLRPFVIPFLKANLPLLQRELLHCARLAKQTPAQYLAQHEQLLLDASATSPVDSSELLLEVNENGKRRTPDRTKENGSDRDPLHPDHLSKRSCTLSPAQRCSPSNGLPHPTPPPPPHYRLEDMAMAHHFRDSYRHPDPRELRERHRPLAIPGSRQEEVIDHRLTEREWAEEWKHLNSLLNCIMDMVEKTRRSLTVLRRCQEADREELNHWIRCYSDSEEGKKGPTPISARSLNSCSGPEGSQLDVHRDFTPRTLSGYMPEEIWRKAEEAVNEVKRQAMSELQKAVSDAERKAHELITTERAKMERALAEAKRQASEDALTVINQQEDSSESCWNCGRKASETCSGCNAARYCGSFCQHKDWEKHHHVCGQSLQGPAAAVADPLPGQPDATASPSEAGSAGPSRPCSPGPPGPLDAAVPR
The experiment in a line: pull-down; streptavidin capture of biotinylated ETO2-V5-Bio from nuclear extracts of MEL cells expressing BirA; western blot.

Among the data in PMC4673834 are binding values, retold here.

Results are given in words; binding and its absence hold for the method and conditions named. Binding seen in cells or lysates may run through a third protein. Some binding calls cover weakened binding; strength is not graded here. For some assays here: Sequences can lack the tags named with a protein.

In the case of “growth factor-independent 1B (GFI1B) (from UniProt O70237 1-330)”, in experiment [1], the binding result is recorded as “binds”.

B1: LIM-domain-binding protein 1 (LDB1) (protein, UniProt P70662 1-411)
chain: MSVGCACPGCSSKSFKLYSPKEPPNGNAFPPFHPGTMLDRDVGPTPMYPPTYLEPGIGRHTPYGNQTDYRIFELNKRLQNWTEECDNLWWDAFTTEFFEDDAMLTITFCLEDGPKRYTIGRTLIPRYFRSIFEGGATELYYVLKHPKEAFHSNFVSLDCDQGSMVTQHGKPMFTQVCVEGRLYLEFMFDDMMRIKTWHFSIRQHRELIPRSILAMHAQDPQMLDQLSKNITRCGLSNSTLNYLRLCVILEPMQELMSRHKTYSLSPRDCLKTCLFQKWQRMVAPPAEPARQQPSKRRKRKMSGGSTMSSGGGNTNNSNSKKKSPASTFALSSQVPDVMVVGEPTLMGGEFGDEDERLITRLENTQFDAANGIDDEDSFNNSPALGANSPWNSKPPSSQESKSENPTSQASQ
As to B1, the binding result with ETO2-V5-Bio is “binds”.
